Measured values published in patent US20250152688A1 (priority 2021, published 2025).

Assays:
[1] = general procedure: Fmoc solid-phase peptide synthesis; Rink amide resin; Sieber resin (Fmoc-Sieber-polystyrene, 0.61 mmol/g); DIC/Oxyma pure and DIPEA; conditions: whole synthesis, scale of the general procedure 0.3 mmol
[2] = general procedure: Fmoc solid-phase peptide synthesis; Fmoc-Sieber-polystyrene resin; DIC/Oxyma pure and DIPEA; conditions: whole synthesis, scale 0.3 mmol

| Substance | purity (crude or final not stated) [1] [% pure] | isolated yield [2] [% yield] |
| --- | --- | --- |
| ALFSVLNYERARRPGLLGASVLGLDDIHRA | 96 | – |
| DBCO-Lys(Br)-Lys(Br)-Lys(Br)-Ser(PG)-NH2 | – | 30 |
| FSVLNYERARRPGLL | 95 | – |
| RPGLLGASVLGLDDI | 95 | – |
| VLNYERARRPGLLGA | 95 | – |

For some assays here: End groups of sequences in plain letters are not given here.
